According to PMC8408529:

Target: Numb (mouse, MELC) (mouse (endogenous in MELC))
Assay: co-IP; induced MELC lysates (50 mM HEPES pH 7.5, 150 mM NaCl, 1% NP-40) precipitated with anti-4.1R, anti-Numb, anti-LGN, anti-NuMA or anti-p150^Glued Ab on protein A-Sepharose, rabbit or mouse IgG as controls; immunoblot with each respective Ab

B1: LGN (mouse, MELC) (protein, UniProt Q8VDU0 1-679)
chain: MEGNLISMREDHSFHVRYRMEASCLELALEGERLCKSGDCRAGVSFFEAAVQVGTEDLKTLSAIYSQLGNAYFYLHDYAKALEYHHHDLTLARTIGDQLGEAKASGNLGNTLKVLGNFDEAIVCCQRHLDISRELNDKVGEARALYNLGNVYHAKGKSFGCPGPQDTGEFPEDVRNALQAAVDLYEENLSLVTALGDRAAQGRAFGNLGNTHYLLGNFRDAVIAHEQRLLIAKEFGDKAAERRAYSNLGNAYIFLGEFETASEYYKKTLLLARQLKDRAVEAQSCYSLGNTYTLLQDYEKAIDYHLKHLAIAQELKDRIGEGRACWSLGNAYTALGNHDQAMHFAEKHLEISREVGDKSGELTARLNLSDLQMVLGLSYSTNNSMMSENIEIDGSLHGAGAKLGRRHSMENLELMKLTPEKVPNWNSEILAKQKPLIAKPSAKLLFVNRLKGKKYKSGSACTKVLQDASNSVDHRAPRSQKKISSDTIGDEGFFDLLRRFQSNRMDDQRCHLQGNCRTTSTAAASATPKLMKAPSVSVVSPNTDEFLDLLASSQSRRLDDQRASFSNLPGLRLTKGNSPSVLERLMTNDKKEPDEDFFDILVKCQGSRLDDQRCAPPSAATKGPTVPDEDFFSLILRSQAKRMDEQRVLLQRDPNRDSEFGLKELLQNNALLEFKHSGK
- binding: binds

Results are given in words; binding and its absence hold for the method and conditions named. Binding seen in cells or lysates may run through a third protein. Binding calls can cover weak binding; strength is not graded here.
